From PubChem BioAssay AID2551 (National Center for Advancing Translational Sciences (NCATS), 2010)
Out of some 310,000 compounds screened, about 17,000 (5.5%) were called active. The inconclusive results got no clear call from the source; some entries with a clear call stand among them for comparison. Calls follow the shape of the dose curve; as a rule, active = well fitted inhibition curve with a large enough effect; inconclusive = small, poorly fitted or top-dose-only effect, or effect the other way; inactive = no such curve, though single readings can be large or run the other way. Potencies beside an inconclusive call are fits to weak or partial responses and may not hold up.

Amino acid sequences for entries named in this document (tags omitted). A change or cut given only in a name is not applied to a line headed by its entry.
UniProt P51450: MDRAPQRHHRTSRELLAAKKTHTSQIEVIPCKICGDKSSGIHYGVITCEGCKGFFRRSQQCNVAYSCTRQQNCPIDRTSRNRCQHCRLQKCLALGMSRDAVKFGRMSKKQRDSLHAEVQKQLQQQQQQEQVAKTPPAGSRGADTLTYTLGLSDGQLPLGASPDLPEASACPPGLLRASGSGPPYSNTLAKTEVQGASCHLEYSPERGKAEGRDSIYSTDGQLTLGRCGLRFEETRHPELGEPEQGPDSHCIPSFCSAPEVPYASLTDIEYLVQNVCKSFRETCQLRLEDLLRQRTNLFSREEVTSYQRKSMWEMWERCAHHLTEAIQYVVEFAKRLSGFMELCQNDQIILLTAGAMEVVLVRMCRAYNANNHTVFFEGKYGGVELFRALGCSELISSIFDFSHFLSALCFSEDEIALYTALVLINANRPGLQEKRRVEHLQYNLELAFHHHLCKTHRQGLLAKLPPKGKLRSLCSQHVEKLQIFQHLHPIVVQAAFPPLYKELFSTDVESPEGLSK

Molecular target: Nuclear receptor ROR-gamma (Mus musculus) (UniProt P51450)
Assay: qHTS for inhibitors of ROR gamma transcriptional activity; also: nearly all actives have a fitted effect of over 60% in size
Settings: Drosophila S2 Gal4-RORgamma UAS-luciferase reporter, 20 h; activity change, negative = inhibition: at 53.6 µM (top of the series)
Method in brief: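 Using a luciferase readout, inhibitors were identified by reduced reporter activity in Drosophila cells coexpressing a copper-inducible Gal4–ROR gamma fusion and UAS-driven Photinus luciferase, incubated 20 hr after 700 uM copper sulfate.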
% is scaled to controls: 0 for no effect and ±100 for the full control effect; potency is read from the fitted curve at half-maximal effect.

SMILES | activity change, negative = inhibition | Potency
O=C(Nc1ccc(OC(F)(F)F)cc1)Nc1cccnc1 | inactive: 0.188% | –
CCSc1nc(-c2ccco2)ccc1C#N | inactive: -29.2% | –
CN1/C(=C/C=N/NC(=O)c2ccc([N+](=O)[O-])cc2)C(C)(C)c2ccccc21 | – | active: 1.78 µM
Cc1nn(CCC(=O)NCc2ccc(OC(C)C)cc2)c(=O)c2nn(-c3ccccc3)c(C)c12 | inactive: -0.93% | –
CCOc1ccc2nc(SCC(=O)c3ccccc3)sc2c1 | – | inconclusive: 28.2 µM [inhibitor, single point]
Cc1cccc(Cn2c(N3CCN(c4ccccc4)CC3)nc3c2c(=O)n(C)c(=O)n3C)c1 | – | inconclusive: 15.8 µM [activator, partial curve]
O=C(Nc1ccc(F)cc1)c1sc2cc(C(F)(F)F)cnc2c1-c1cccs1 | inactive: 1.44% | –
O=C(Nc1ccc2oc(-c3ccncc3)nc2c1)c1cccs1 | – | inconclusive: 35.5 µM [inhibitor, single point]
Cc1ccc(NC(=S)N2CCCCC2CO)cc1C (stereo not drawn) | – | active: 7.94 µM
O=C(Cc1ccc([N+](=O)[O-])cc1)NCc1ccccn1 | – | inconclusive: 20 µM [inhibitor, single point]
Cc1ccc(NC(=O)c2ccc3c(c2)OCCO3)cc1 | – | inconclusive: 22.4 µM [inhibitor, single point]
CN(c1nc2ccccc2nc1Cl)S(=O)(=O)c1ccccc1 | inactive: 24.9% | –
CCCc1cc(-c2n[nH]c(=S)n2C(C)c2ccccc2)cs1 (stereo not drawn) | – | active: 7.08 µM
Cc1ccccc1-c1nnc(-c2ccccc2C)o1 | – | inconclusive: 35.5 µM [activator, single point]
CCOC(=O)C(CC(=O)Nc1nc(C(C)=O)c(C)s1)C(C)c1ccccc1 (stereo not drawn) | inactive: -6.12% | –
Cc1cccnc1NC(=O)c1ccccc1NC(=O)C(C)(C)C | inactive: -1.53% | –
CC(=O)c1ccccc1OCc1ccc(C(=O)c2ccccc2)cc1 | – | inconclusive: 35.5 µM [activator, single point]
COc1ccc(N2CCN(C(=O)c3ccc(Cn4c(=S)[nH]c5ccc(N6CCOCC6)cc5c4=O)cc3)CC2)cc1 | inactive: -41.8% | –
CCc1ccc(NC(=O)c2cnc(SC)nc2C)cc1 | – | inconclusive: 12.6 µM [activator, partial curve]
O=S(=O)(c1cnc(Cl)c(Cl)c1)N1CCCc2ccccc21 | – | inconclusive: 12.6 µM [inhibitor, single point]
CC(/C=N/n1c(-c2ccco2)n[nH]c1=S)=C\c1ccccc1 | – | inconclusive: 0.141 µM [inhibitor, full curve, poor fit]
COc1ccc(S(=O)(=O)N2CCCN(CC(=O)Nc3ccc(OC)c(Cl)c3)CC2)cc1 | – | inconclusive: 3.55 µM [activator, partial curve]
COc1ccc(C2SCCN2C(=S)Nc2cccc(Cl)c2)cc1 (stereo not drawn) | – | inconclusive: 22.4 µM [inhibitor, single point]
Cc1ccc2nc(NC(=O)C3CCN(C(=O)c4ccc(F)cc4)CC3)sc2c1 | – | inconclusive: 25.1 µM [activator, single point]

3 structures already listed, sorted by number of heavy atoms, low to high.
SMILES | activity change, negative = inhibition | Potency
CCSc1nc(-c2ccco2)ccc1C#N | inactive: -29.2% | –
O=C(Cc1ccc([N+](=O)[O-])cc1)NCc1ccccn1 | – | inconclusive: 20 µM [inhibitor, single point]
CCOC(=O)C(CC(=O)Nc1nc(C(C)=O)c(C)s1)C(C)c1ccccc1 (stereo not drawn) | inactive: -6.12% | –

Going on with the list:

SMILES | activity change, negative = inhibition | Potency
CC(C)CC(NC(N)=O)C(=O)OCC(=O)Nc1ccc(OC(F)F)cc1 (stereo not drawn) | inactive: 18.3% | –
CCN(Cc1nc(-c2ccc(OC)cc2)no1)C(=O)c1ccc2c(c1)OCO2 | – | inconclusive: 10 µM [activator, partial curve, poor fit]
CCN(CC)S(=O)(=O)c1ccc(NC(=O)COC(=O)c2cnc(C)cn2)cc1 | – | inconclusive: 2.82 µM [inhibitor, partial curve]
COC(=O)C(NC(=O)c1c(C)nn(C)c1Cl)c1ccccc1 (stereo not drawn) | inactive: 0.0098% | –
COCCCNC(=S)NNC(=O)c1cc(C2CC2)nc2ccccc12 | – | active: 2.82 µM
CN(CCc1cn[nH]c1)Cc1nc(Cc2ccccc2)no1 | – | inconclusive: 35.5 µM [inhibitor, single point]
CCN1C(=O)/C(=C\C(=O)c2cccs2)c2cc(Br)ccc21 | – | inconclusive: 22.4 µM [inhibitor, single point]
CCOc1cc2c(cc1C=O)OC(C)C2 (stereo not drawn) | inactive: 12.9% | –
CC(C)(C)OC(=O)NCCC(=O)N/N=C/c1cccc2cccnc12 | – | inconclusive: 14.1 µM [inhibitor, single point]
CCN(CC)S(=O)(=O)c1ccc(C(=O)Nc2cccc(C)c2)cc1 | inactive: 16.8% | –
N#C/C(=C(/O)c1ccco1)c1nc2ccccc2[nH]1 | – | active: 7.08 µM
Cc1ccc(OCC(=O)Nc2ccc3c(c2)OCO3)cc1C | inactive: 6.69% | –
COc1ccc(CCN(C)C2CCCN(C(=O)Cn3cnnn3)C2)cc1OC (stereo not drawn) | inactive: -1.94% | –
Cc1cc(N2CCCCCC2)n2nc(C)c(-c3ccccc3)c2n1 | – | inconclusive: 20 µM [inhibitor, partial curve, poor fit]
COc1ccc(C(=O)Nc2nnc(SCC(=O)Nc3ccc(NC(C)=O)cc3)s2)c(OC)c1 | – | inconclusive: 0.708 µM [inhibitor, full curve, poor fit]
Cc1cccc(OCC(=O)N/N=C/c2cc([N+](=O)[O-])ccc2N2CCOCC2)c1 | – | inconclusive: 11.2 µM [activator, single point]
CCOC(=O)N1CCN(C(=O)c2cc(-c3ccc(F)cc3)[nH]c2C)CC1 | – | inconclusive: 35.5 µM [activator, single point]
Cc1c(NC(=O)c2cc(-c3ccco3)on2)c(=O)n(-c2ccccc2)n1C | inactive: -5.68% | –
CC(C)(C)OC(=O)NCc1ccc(NC(=O)c2nc[nH]c2C(=O)N[C@@H](Cc2ccccc2)C(=O)OC(C)(C)C)cc1 | – | active: 7.08 µM
COc1ccccc1Nc1c2ccccc2nc2ccccc12 | inactive: 0.444% | –
Cc1csc(SCc2nnc(-c3ccccc3Br)o2)n1 | – | inconclusive: 17.8 µM [inhibitor, single point]
N#C/C(=C\c1cn[nH]c1-c1ccc(Cl)cc1)C(=O)NC1CC1 | – | inconclusive: 22.4 µM [activator, single point]
O=[N+]([O-])c1ccc(-c2nc3ccc([N+](=O)[O-])cc3[nH]2)cc1 | – | inconclusive: 0.891 µM [activator, full curve, poor fit]
CC(C)Nc1ncnc2c1cnn2Cc1ccc(Cl)cc1 | – | inconclusive: 12.6 µM [activator, partial curve]
